Laboratory results taken from PMC3303851, “Structural Basis of Ets1 Cooperative Binding to Widely Separated Sites on Promoter DNA” (PLoS ONE, 2012).
Results are given in words; binding and its absence hold for the method and conditions named. Some binding calls cover weakened binding; strength is not graded here.

Biological target: Ets1 (residues 280–441) (UniProt P14921)
Experiment: crystal structure; Ets1 280-441 mixed 1:1.05 with TCRα promoter dsDNA; (Ets1)2•2DNA crystals grown at 295 K, space group P2_(1), refined at 3.1 Å; asymmetric unit holds an Ets1 homodimer and two pieces of dsDNA; both purified

B1: Ets1 (residues 280–441) (domain or fragment, UniProt P14921 280-441, looked up)
chain: VPSYDSFDSEDYPAALPNHKPKGTFKDYVRDRADLNKDKPVIPAAALAGYTGSGPIQLWQFLLELLTDKSCQSFISWTGDGWEFKLSDPDEVARRWGKRKNKPKMNYEKLSRGLRYYYDKNIIHKTAGKRYVYRFVCDLQSLLGYTPEELHAMLDVKPDADE
notes: also called Ets1 dimer; source: cloned, expressed and purified according to reported protocols [36]
  binding: binds
